Reference: the supplement of paper PMC10849652
Some of the results follow.

Chains of the proteins cited; added tags and fusions are not shown. Lines headed by an entry give the natural chain unless they say otherwise; changes in a name come on top.
UniProt P05141: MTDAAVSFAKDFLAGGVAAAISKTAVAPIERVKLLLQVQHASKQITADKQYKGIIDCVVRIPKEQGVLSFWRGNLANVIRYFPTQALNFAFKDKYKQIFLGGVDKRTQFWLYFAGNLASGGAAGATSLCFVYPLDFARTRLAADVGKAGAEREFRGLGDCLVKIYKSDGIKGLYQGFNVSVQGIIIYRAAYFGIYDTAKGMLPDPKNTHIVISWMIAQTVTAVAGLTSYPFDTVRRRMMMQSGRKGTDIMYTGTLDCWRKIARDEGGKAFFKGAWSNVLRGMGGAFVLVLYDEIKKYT
UniProt P48067: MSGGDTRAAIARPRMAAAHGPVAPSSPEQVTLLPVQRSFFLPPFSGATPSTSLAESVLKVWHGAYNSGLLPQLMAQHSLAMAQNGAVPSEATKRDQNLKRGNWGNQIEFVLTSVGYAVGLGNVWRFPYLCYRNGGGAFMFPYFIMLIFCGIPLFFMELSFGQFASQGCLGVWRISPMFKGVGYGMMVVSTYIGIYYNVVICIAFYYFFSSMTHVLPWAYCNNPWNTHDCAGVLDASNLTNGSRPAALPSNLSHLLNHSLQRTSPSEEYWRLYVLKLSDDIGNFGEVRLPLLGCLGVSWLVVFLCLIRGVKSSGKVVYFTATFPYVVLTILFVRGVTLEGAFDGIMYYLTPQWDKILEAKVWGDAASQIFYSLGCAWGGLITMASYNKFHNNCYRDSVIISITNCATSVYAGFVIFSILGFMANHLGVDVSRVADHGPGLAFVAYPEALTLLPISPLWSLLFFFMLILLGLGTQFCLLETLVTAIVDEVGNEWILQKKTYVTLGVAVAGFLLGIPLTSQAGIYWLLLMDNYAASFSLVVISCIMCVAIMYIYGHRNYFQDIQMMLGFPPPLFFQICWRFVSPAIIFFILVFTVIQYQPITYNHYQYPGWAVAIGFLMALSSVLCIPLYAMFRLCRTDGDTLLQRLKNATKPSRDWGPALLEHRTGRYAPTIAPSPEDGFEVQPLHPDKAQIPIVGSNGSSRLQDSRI
UniProt Q96AG3: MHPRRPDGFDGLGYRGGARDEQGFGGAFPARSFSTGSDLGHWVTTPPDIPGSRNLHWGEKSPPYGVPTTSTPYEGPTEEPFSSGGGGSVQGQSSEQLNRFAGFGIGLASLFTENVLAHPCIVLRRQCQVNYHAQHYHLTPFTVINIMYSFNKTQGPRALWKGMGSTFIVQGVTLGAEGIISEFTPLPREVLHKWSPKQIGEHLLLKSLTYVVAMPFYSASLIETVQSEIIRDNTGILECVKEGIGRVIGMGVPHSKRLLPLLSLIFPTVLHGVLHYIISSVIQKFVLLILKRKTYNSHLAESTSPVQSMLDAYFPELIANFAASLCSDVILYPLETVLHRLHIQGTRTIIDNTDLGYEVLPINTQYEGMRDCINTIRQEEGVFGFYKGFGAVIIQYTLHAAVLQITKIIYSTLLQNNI
UniProt Q92536: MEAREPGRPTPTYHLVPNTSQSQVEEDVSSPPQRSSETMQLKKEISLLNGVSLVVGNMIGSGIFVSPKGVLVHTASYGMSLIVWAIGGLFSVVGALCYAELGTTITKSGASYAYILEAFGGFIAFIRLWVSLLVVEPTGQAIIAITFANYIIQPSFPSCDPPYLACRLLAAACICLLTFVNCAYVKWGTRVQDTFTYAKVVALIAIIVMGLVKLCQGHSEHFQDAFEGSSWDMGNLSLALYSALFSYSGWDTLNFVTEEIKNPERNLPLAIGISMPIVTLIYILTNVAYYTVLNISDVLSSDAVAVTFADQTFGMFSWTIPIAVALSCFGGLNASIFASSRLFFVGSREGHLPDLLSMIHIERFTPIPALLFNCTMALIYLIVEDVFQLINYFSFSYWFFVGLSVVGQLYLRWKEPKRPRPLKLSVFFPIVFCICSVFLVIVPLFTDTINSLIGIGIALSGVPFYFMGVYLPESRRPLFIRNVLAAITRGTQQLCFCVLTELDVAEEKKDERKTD
UniProt Q9Y619: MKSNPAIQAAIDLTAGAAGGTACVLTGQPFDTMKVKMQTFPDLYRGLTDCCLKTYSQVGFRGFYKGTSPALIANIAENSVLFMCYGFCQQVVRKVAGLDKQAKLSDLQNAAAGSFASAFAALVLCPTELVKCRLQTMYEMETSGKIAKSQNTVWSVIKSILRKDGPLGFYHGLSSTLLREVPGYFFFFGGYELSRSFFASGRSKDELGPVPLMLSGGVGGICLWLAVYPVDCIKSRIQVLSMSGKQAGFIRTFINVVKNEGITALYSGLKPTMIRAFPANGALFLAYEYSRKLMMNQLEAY
UniProt P08195: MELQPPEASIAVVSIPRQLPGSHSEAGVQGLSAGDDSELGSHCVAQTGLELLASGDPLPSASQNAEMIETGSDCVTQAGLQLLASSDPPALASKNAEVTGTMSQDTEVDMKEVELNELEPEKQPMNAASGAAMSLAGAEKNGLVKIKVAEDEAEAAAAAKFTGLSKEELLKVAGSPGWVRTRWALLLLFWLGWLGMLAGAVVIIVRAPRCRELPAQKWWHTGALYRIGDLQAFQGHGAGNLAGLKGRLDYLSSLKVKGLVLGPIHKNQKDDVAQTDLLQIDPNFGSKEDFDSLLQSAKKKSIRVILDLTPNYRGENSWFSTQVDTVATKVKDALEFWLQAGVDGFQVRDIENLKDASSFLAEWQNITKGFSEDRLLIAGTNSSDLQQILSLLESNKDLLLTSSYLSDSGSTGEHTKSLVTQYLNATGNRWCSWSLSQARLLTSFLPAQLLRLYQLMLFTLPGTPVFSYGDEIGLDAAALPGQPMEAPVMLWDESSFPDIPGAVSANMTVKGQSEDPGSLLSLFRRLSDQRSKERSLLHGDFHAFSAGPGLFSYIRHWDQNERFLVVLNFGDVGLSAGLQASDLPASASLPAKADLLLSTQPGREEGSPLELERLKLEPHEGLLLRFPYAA
UniProt O75387: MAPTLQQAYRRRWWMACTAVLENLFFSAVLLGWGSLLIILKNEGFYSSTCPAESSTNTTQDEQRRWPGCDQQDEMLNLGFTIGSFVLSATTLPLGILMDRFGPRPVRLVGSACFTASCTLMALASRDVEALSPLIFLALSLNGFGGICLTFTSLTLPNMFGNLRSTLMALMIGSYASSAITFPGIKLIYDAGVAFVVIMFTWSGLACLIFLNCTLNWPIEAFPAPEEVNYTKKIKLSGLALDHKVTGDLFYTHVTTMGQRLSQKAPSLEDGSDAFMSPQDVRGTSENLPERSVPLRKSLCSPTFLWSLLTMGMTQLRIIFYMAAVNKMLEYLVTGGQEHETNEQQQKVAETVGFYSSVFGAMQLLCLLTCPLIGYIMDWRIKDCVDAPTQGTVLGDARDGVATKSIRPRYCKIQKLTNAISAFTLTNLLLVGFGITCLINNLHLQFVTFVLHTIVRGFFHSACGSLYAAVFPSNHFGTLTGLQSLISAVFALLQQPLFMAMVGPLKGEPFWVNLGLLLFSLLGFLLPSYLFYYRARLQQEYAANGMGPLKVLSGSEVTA
UniProt Q8WUX1, whole entry, looked up: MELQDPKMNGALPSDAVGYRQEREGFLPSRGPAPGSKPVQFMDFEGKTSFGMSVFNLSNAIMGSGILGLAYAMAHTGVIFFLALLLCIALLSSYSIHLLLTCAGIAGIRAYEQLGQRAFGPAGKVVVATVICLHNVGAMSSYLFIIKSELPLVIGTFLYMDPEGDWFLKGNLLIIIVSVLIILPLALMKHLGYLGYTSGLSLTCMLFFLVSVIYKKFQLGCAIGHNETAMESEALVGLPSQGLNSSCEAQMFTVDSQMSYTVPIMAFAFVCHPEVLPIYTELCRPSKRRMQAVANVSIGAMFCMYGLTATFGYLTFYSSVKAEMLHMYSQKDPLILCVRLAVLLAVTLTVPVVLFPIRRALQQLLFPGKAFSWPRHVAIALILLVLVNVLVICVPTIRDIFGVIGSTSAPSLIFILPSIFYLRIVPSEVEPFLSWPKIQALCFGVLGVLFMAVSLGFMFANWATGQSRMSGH
UniProt Q15043: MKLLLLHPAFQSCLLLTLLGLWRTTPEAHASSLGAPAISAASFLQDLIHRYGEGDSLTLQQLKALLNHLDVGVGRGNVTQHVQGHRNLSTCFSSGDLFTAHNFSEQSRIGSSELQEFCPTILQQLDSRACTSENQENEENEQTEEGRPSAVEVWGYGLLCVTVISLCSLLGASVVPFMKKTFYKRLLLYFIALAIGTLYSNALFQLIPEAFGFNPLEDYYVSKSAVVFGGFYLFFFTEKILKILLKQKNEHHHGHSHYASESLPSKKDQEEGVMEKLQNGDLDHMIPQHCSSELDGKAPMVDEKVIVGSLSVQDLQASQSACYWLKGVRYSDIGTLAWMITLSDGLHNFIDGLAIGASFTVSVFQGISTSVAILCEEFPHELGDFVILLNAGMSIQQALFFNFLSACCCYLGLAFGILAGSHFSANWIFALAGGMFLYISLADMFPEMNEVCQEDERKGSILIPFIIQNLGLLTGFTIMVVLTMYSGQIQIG
UniProt O15431: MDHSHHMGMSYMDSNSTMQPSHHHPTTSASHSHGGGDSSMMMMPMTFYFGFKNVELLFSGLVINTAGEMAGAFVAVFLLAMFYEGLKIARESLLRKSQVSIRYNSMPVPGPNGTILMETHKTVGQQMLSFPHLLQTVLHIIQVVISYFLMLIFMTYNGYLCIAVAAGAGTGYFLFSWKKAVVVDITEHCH
UniProt L0R6Q1: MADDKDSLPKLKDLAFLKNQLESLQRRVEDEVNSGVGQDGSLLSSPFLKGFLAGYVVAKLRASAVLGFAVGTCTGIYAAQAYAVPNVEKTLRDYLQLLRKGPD
UniProt Q9UPY5: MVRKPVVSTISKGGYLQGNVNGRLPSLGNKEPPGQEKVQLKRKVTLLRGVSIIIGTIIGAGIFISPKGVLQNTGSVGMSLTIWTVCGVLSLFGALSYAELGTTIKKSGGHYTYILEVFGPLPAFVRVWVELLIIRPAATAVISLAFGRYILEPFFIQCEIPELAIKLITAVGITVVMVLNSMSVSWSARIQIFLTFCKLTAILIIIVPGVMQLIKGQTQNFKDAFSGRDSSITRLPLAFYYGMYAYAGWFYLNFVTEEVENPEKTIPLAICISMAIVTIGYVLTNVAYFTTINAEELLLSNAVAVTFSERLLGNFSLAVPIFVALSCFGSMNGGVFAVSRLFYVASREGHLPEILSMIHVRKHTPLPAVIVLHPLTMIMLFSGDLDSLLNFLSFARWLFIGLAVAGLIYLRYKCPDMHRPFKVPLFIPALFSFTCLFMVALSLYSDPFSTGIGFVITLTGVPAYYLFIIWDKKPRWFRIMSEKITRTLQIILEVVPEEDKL
UniProt Q99808: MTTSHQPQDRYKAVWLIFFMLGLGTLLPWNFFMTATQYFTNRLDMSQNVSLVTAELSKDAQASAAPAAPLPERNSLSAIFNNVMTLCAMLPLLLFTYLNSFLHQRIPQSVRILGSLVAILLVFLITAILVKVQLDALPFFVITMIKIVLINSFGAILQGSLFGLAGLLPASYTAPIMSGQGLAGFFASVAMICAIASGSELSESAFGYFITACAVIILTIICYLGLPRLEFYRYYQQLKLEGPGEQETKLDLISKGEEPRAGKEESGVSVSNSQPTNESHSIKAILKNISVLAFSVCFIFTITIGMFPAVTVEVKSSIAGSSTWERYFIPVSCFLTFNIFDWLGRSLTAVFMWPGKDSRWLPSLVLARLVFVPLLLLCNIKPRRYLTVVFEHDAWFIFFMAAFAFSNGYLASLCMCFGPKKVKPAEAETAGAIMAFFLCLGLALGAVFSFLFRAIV
UniProt Q8N1S5: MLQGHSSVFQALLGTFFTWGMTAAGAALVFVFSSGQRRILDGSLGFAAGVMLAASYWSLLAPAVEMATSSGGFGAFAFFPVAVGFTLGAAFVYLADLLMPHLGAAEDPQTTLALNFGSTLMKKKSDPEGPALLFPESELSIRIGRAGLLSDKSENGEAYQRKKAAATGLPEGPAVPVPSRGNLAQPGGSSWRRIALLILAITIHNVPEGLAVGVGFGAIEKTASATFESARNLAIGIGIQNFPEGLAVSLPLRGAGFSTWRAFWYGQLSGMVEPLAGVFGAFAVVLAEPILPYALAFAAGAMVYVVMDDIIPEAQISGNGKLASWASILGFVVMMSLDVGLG
UniProt O43808: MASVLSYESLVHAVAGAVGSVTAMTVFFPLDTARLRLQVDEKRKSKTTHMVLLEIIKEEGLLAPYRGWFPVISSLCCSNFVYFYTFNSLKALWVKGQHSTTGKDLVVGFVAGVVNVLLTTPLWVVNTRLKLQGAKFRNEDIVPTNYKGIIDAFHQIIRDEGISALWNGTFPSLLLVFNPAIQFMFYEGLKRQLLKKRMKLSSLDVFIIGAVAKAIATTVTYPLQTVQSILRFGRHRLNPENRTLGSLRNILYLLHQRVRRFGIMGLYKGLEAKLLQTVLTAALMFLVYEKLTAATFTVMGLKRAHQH
UniProt O43772: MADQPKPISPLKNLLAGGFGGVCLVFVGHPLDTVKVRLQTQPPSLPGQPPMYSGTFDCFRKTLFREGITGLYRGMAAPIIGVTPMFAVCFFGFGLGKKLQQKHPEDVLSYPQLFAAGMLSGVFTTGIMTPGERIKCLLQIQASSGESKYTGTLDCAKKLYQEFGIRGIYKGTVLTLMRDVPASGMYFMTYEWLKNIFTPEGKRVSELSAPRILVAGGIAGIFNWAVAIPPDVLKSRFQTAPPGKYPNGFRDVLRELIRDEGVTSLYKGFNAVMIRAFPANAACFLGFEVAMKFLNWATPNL

Tests used:
Assay in all cases: log2 fold change, soluble protein after heating vs DMSO (PISA); higher = thermal stabilisation; K562 lysate, 10 uM; active = over 0.2 and 3.5 SD of the protein, either way, in both replicates (recomputed)
ibrutinib = compound: C=CC(=O)N1CCC[C@@H](n2nc(-c3ccc(Oc4ccccc4)cc3)c3c(N)ncnc32)C1 [ibrutinib]
Outline: (§1)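 Dounce homogenisation of K562 pellets in PBS pH 7.4 with 1 mM MgCl2 produced a crude extract, used at 1 mg/mL protein. Exposure to 10 μM compound lasted 30 min, and aliquots were then heated for 3 min across 48°C-58°C, pooled and brought to 0.5% NP-40 at 4°C. The supernatant after 21,000xg for 90 min was quantified by TMTpro 16plex LC-MS/MS with channel sums equalised. Duplicate values are given as log-two fold change in thermal stability relative to solvent controls.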

[1] = compound: CC(=O)c1cnc2ccc(-c3cc(Cl)c(O)c(Cl)c3)nc2c1N[C@H]1CC[C@H](CN(C)C)CC1
Outline: as §1

ralimetinib = compound: CC(C)(C)Cn1c(N)nc2ccc(-c3[nH]c(C(C)(C)C)nc3-c3ccc(F)cc3)nc21 [ralimetinib]
Outline: as §1

[2] = compound: CC(C)(O)CC(=O)NCCn1ccc2ncnc(Nc3ccc(Oc4cccc(C(F)(F)F)c4)c(Cl)c3)c21
Outline: as §1

[3] = compound: CC(C)C1=C2N=C(C=C(N2N=C1)NCC3=CC=CC=C3)NCCCCCCN
Outline: as §1

[4] = compound: CC1=C(C(CC(=O)N1)C2=CC=C(C=C2)C(F)(F)F)C(=O)NC3=C(C=C4C(=C3)C=NN4)F
Outline: as §1

[5] = compound: CC1=C(C2=C(C=C1)C(=O)C3=CC=CC=C3N2CCCN)C
Outline: as §1

[6] = compound: CC1=C(C=C(C=C1)NC(=O)C2=CC(=CC=C2)C(C)(C)C#N)NC3=CC4=C(C=C3)N=CN(C4=O)C
Outline: as §1

[7] = compound: CC1=C(C=C(C=C1)NC(=O)C2=CC(=CC=C2)N(C)C)NC(=O)C3=CC=C(C=C3)O
Outline: as §1

[8] = compound: CC1=CC=C(C=C1)SC2=C3C=C(SC3=CN=C2)C(=O)N
Outline: as §1

Measured: log2 fold change

SLC25A5 (UniProt P05141)
inactive: ibrutinib -0.067 | [1] -0.013 | ralimetinib -0.006 | [2] 0.029 | [3] -0.005 | [4] 0.001 | [5] -0.04 | [6] -0.001 | [7] 0.016 | [8] 0.034

SLC6A9 isoform 2 (UniProt P48067)
inactive: ibrutinib -0.01 | [1] 0.012 | ralimetinib 0.006 | [2] -0.074 | [3] 0.054 | [4] 0.006 | [5] -0.017 | [6] 0 | [7] 0.045 | [8] -0.002

SLC25A46 (UniProt Q96AG3)
inactive: ibrutinib 0.078 | [1] -0.025 | ralimetinib 0.009 | [2] -0.058 | [3] -0.018 | [4] -0.033 | [5] 0.026 | [6] 0.014 | [7] -0.019 | [8] -0.065

SLK isoform 2 (UniProt Q9H2G2)
inactive: ibrutinib -0.06 | [1] 0.109 | ralimetinib -0.01 | [2] -0.082 | [3] -0.016 | [4] -0.033 | [5] -0.007 | [6] -0.088 | [7] 0.021 | [8] 0.041

SLC30A5 (UniProt Q8TAD4)
inactive: ibrutinib -0.055 | [1] 0.039 | ralimetinib -0.079 | [2] -0.023 | [3] -0.041 | [4] -0.031 | [5] -0.024 | [6] -0.036 | [7] -0.01 | [8] -0.012

SLC7A6 (UniProt Q92536)
inactive: ibrutinib 0.113 | [1] -0.03 | ralimetinib 0.027 | [2] -0.129 | [3] -0.06 | [4] -0.323 | [5] 0.005 | [6] 0.01 | [7] -0.002 | [8] -0.028

SLC25A15 (UniProt Q9Y619)
inactive: ibrutinib 0 | [1] -0.012 | ralimetinib 0.022 | [2] -0.035 | [3] -0.027 | [4] -0.045 | [5] 0.037 | [6] -0.001 | [7] -0.012 | [8] -0.005

SLC25A42 (UniProt Q86VD7)
inactive: ibrutinib -0.094 | [1] 0.049 | ralimetinib 0.018 | [2] -0.027 | [3] 0.055 | [4] -0.017 | [5] -0.046 | [6] -0.003 | [7] 0.073 | [8] 0.01

SLC3A2 isoform 3 (UniProt P08195)
inactive: ibrutinib -0.005 | [1] -0.001 | ralimetinib -0.001 | [2] -0.03 | [3] -0.008 | [4] -0.009 | [5] -0.017 | [6] 0.017 | [7] 0.009 | [8] -0.031

SLC25A25 isoform 3 (UniProt Q6KCM7)
inactive: ibrutinib -0.015 | [1] -0.028 | ralimetinib 0.011 | [2] 0.021 | [3] 0.018 | [4] 0.022 | [5] -0.036 | [6] 0.017 | [7] -0.012 | [8] 0.034

SLC35C2 isoform 3 (UniProt Q9NQQ7)
inactive: ibrutinib -0.08 | [1] -0.184 | ralimetinib -0.098 | [2] -0.02 | [3] -0.152 | [4] -0.085 | [5] 0.046 | [6] 0.033 | [7] -0.103 | [8] 0.036

SLC43A1 (UniProt O75387)
inactive: ibrutinib 0.106 | [1] -0.01 | ralimetinib 0.047 | [2] -0.022 | [3] -0.018 | [4] 0.034 | [5] -0.095 | [6] 0.034 | [7] -0.033 | [8] -0.001

SLC2A1 (UniProt P11166)
inactive: ibrutinib 0.041 | [1] 0.003 | ralimetinib 0.038 | [2] 0.005 | [3] -0.019 | [4] -0.023 | [5] 0.015 | [6] -0.006 | [7] 0.021 | [8] 0.01

SLC35B3 (UniProt Q9H1N7)
inactive: ibrutinib 0.027 | [1] -0.036 | ralimetinib 0.048 | [2] -0.115 | [3] -0.017 | [4] -0.059 | [5] -0.011 | [6] 0.104 | [7] 0.02 | [8] 0.007

SLC9A3R1 (UniProt O14745)
inactive: ibrutinib -0.008 | [1] -0.006 | ralimetinib 0.009 | [2] -0.024 | [3] -0.017 | [4] -0.018 | [5] 0.023 | [6] -0.005 | [7] -0.016 | [8] -0.007

SLC7A5 (UniProt Q01650)
inactive: ibrutinib -0.011 | [1] -0.01 | ralimetinib 0.018 | [2] -0.042 | [3] 0.036 | [4] -0.031 | [5] -0.003 | [6] 0.075 | [7] -0.043 | [8] 0

SLC25A10 isoform 2 (UniProt Q9UBX3)
inactive: ibrutinib 0.004 | [1] -0.009 | ralimetinib 0.035 | [2] -0.019 | [3] 0.009 | [4] 0.017 | [5] 0.013 | [6] 0.002 | [7] 0.009 | [8] 0.028

SLC38A5 (UniProt Q8WUX1)
inactive: ibrutinib -0.016 | [1] 0.014 | ralimetinib -0.001 | [2] -0.055 | [3] -0.016 | [4] 0.002 | [5] 0.021 | [6] 0.075 | [7] 0.017 | [8] -0.02

Reprinted from the entries so far (six entries):
SLC35C2 isoform 3 (UniProt Q9NQQ7)
inactive: ibrutinib -0.08 | [1] -0.184 | ralimetinib -0.098 | [2] -0.02 | [3] -0.152 | [4] -0.085 | [5] 0.046 | [6] 0.033 | [7] -0.103 | [8] 0.036

SLC43A1 (UniProt O75387)
inactive: ibrutinib 0.106 | [1] -0.01 | ralimetinib 0.047 | [2] -0.022 | [3] -0.018 | [4] 0.034 | [5] -0.095 | [6] 0.034 | [7] -0.033 | [8] -0.001

SLC2A1 (UniProt P11166)
inactive: ibrutinib 0.041 | [1] 0.003 | ralimetinib 0.038 | [2] 0.005 | [3] -0.019 | [4] -0.023 | [5] 0.015 | [6] -0.006 | [7] 0.021 | [8] 0.01

SLC35B3 (UniProt Q9H1N7)
inactive: ibrutinib 0.027 | [1] -0.036 | ralimetinib 0.048 | [2] -0.115 | [3] -0.017 | [4] -0.059 | [5] -0.011 | [6] 0.104 | [7] 0.02 | [8] 0.007

SLC9A3R1 (UniProt O14745)
inactive: ibrutinib -0.008 | [1] -0.006 | ralimetinib 0.009 | [2] -0.024 | [3] -0.017 | [4] -0.018 | [5] 0.023 | [6] -0.005 | [7] -0.016 | [8] -0.007

SLC7A5 (UniProt Q01650)
inactive: ibrutinib -0.011 | [1] -0.01 | ralimetinib 0.018 | [2] -0.042 | [3] 0.036 | [4] -0.031 | [5] -0.003 | [6] 0.075 | [7] -0.043 | [8] 0

The results go on:

SLC39A14 (UniProt Q15043)
inactive: ibrutinib 0.105 | [1] -0.009 | ralimetinib -0.011 | [2] -0.042 | [3] 0 | [4] 0.005 | [5] -0.006 | [6] 0.004 | [7] -0.004 | [8] -0.039

SLC9A8 isoform 2 (UniProt Q9Y2E8)
inactive: ibrutinib 0.019 | [1] 0.049 | ralimetinib 0.093 | [2] -0.016 | [3] -0.014 | [4] -0.001 | [5] 0.03 | [6] -0.039 | [7] -0.008 | [8] 0.008

SLC31A1 (UniProt O15431)
inactive: ibrutinib -0.007 | [1] -0.086 | ralimetinib 0.016 | [2] -0.214 | [3] -0.048 | [4] -0.028 | [5] 0.121 | [6] 0.023 | [7] 0.015 | [8] -0.064

SLC35A4 (UniProt L0R6Q1)
inactive: ibrutinib 0.035 | [1] -0.078 | ralimetinib 0.046 | [2] -0.046 | [3] 0 | [4] -0.046 | [5] -0.046 | [6] 0.103 | [7] -0.001 | [8] -0.007

SLC7A11 (UniProt Q9UPY5)
inactive: ibrutinib 0.028 | [1] -0.007 | ralimetinib 0.061 | [2] -0.103 | [3] -0.043 | [4] -0.048 | [5] -0.045 | [6] 0.039 | [7] -0.007 | [8] -0.032

SLC29A1 isoform 2 (UniProt Q99808)
inactive: ibrutinib -0.013 | [1] -0.045 | ralimetinib 0.077 | [2] -0.041 | [3] -0.012 | [4] 0.001 | [5] 0 | [6] 0.046 | [7] -0.02 | [8] -0.017

SLC4A1AP (UniProt Q9BWU0)
inactive: ibrutinib 0 | [1] -0.005 | ralimetinib 0.039 | [2] -0.01 | [3] -0.001 | [4] -0.034 | [5] -0.005 | [6] 0.014 | [7] -0.001 | [8] -0.015

SLC39A11 (UniProt Q8N1S5)
inactive: ibrutinib -0.065 | [1] -0.008 | ralimetinib -0.136 | [2] -0.042 | [3] -0.023 | [4] 0.051 | [5] 0.16 | [6] -0.074 | [7] -0.089 | [8] 0.001

SMARCA2 (UniProt P51531)
inactive: ibrutinib 0.005 | [1] -0.006 | ralimetinib 0.031 | [2] -0.011 | [3] 0.036 | [4] 0.016 | [5] -0.044 | [6] -0.015 | [7] 0.012 | [8] 0.013

SLC25A17 (UniProt O43808)
inactive: ibrutinib -0.007 | [1] -0.043 | ralimetinib 0.047 | [2] -0.019 | [3] 0.037 | [4] 0.001 | [5] 0.029 | [6] 0.03 | [7] -0.01 | [8] 0.044

SLC25A20 (UniProt O43772)
inactive: ibrutinib 0.02 | [1] 0.023 | ralimetinib 0.032 | [2] -0.027 | [3] -0.004 | [4] -0.027 | [5] -0.001 | [6] 0.053 | [7] -0.003 | [8] -0.017
